Results deposited as PubChem BioAssay AID1259254 (NCATS, 2017)

Aim: 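Gene knock-downs that lead to re-replication, shown by excess G2 DNA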 (primary screen)
System: human HCT116 colorectal cancer cells
Reagent: single siRNA against human genes
Duration: 3 days
Measured: 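Nuclei stained with Hoechst and imaged; cell-cycle phase assigned by DNA content; G2 share scaled per plate, non-targeting siRNA 0%, GMNN siRNA 100%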
Reading the numbers: G2 robust z-score: higher = more G2 cells, more excess DNA replication
Call rule: 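An siRNA counts as active if its G2 robust z-score lies at least 5 MADs above the screen median; here such calls match roughly 38% of GMNN control or more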
In all, the deposit lists about 59,000 reagents; this is a random part of them. About 1,550 of them (2.6%) were called active. 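G2 share is only a proxy for re-replication; each gene was hit by three separate siRNAs, and active genes were retested.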 Reagents against one gene are numbered here. Not all columns of the deposit are shown. The record does not give: the amount of reagent.

gene	reagent no.	G2 robust z-score	Call
RALGAPB (GeneID 57148)	1	0.763	inactive
RALGAPB (GeneID 57148)	2	0.58	inactive
RALGAPB (GeneID 57148)	3	0.601	inactive
DLGAP1-AS1 (GeneID 649446)	1	-0.146	inactive
DLGAP1-AS1 (GeneID 649446)	2	1.2	inactive
DLGAP1-AS1 (GeneID 649446)	3	1.23	inactive
ZNF530 (GeneID 348327)	1	-0.71	inactive
ZNF530 (GeneID 348327)	2	-0.444	inactive
ZNF530 (GeneID 348327)	3	0.388	inactive
ACTL9 (GeneID 284382)	1	-0.395	inactive
ACTL9 (GeneID 284382)	2	-0.263	inactive
ACTL9 (GeneID 284382)	3	-0.579	inactive
PATE1 (GeneID 160065)	1	0.368	inactive
PATE1 (GeneID 160065)	2	2.47	inactive
PATE1 (GeneID 160065)	3	-0.704	inactive
ALX4 (GeneID 60529)	1	-1.11	inactive
ALX4 (GeneID 60529)	2	1.75	inactive
ALX4 (GeneID 60529)	3	-0.421	inactive
CMYA5 (GeneID 202333)	1	-0.964	inactive
CMYA5 (GeneID 202333)	2	0.706	inactive
CMYA5 (GeneID 202333)	3	3.83	inactive
HYCC1 (GeneID 84668)	1	-0.748	inactive
HYCC1 (GeneID 84668)	2	1.88	inactive
HYCC1 (GeneID 84668)	3	-0.29	inactive
RAPGEF2 (GeneID 9693)	1	0.1	inactive
RAPGEF2 (GeneID 9693)	2	2.33	inactive
RAPGEF2 (GeneID 9693)	3	-0.0458	inactive
ARHGEF28 (GeneID 64283)	1	-0.492	inactive
ARHGEF28 (GeneID 64283)	2	0.359	inactive
ARHGEF28 (GeneID 64283)	3	-0.296	inactive

Individual results from the entries so far:
For “G2 robust z-score”, PATE1 (GeneID 160065) #2 reads 2.47
ALX4 (GeneID 60529) #2, G2 robust z-score = 1.75
